Data as given in PubChem BioAssay AID652248 (Drosophila RNAi Screening Center, 2013).
This is one part, drawn at random, of 863 deposited reagents. 32 of them (3.7%) were called active. 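Calls also used reproducibility and a similarity ranking whose scores are not deposited; many active genes show only modest elongated scores.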 Entries without a mark were called inactive. Not stated in the record: the amount of reagent, the time to read-out.

Test: 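Kinases and phosphatases whose loss pushes fly blood cells toward elongated shapes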 (primary screen)
System: cultured Drosophila hemocytes
Knock-down reagent: long dsRNA against Drosophila genes
Read-out: 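Automated microscopy of stained actin, tubulin and nuclei; single-cell shape measures assigned to five reference shape types, giving a score per dsRNA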
Direction: elongated score: higher = more elongated bipolar cells; normal round score: higher = more normal rounded cells; teardrop score: higher = more small teardrop-shaped cells
Active means: 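a gene counts as active when its knock-down clearly increases the elongated score; a low similarity score was then used to rank the actives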

| Gene | DRSC id | elongated score, rep 1 | elongated score, rep 2 | normal round score, rep 1 | teardrop score, rep 1 |
| --- | --- | --- | --- | --- | --- |
| Ptpmeg2 | DRSC18277 | -0.45 | – | 0.2 | 0.24 |
| Ptpmeg2 | DRSC18278 | -0.53 | – | 0.76 | -0.51 |
| Ptpmeg2 | DRSC23303 | -0.29 | – | -1.65 | 1.68 |
| Ptpmeg2 | DRSC26646 | 0.21 | – | 0.22 | -0.13 |
| Cib2 | DRSC04535 | 0.19 | – | -0.77 | 1.22 |
| CG12069 | DRSC14470 | 1.42 | – | -0.18 | -0.56 |
| CG12069 | DRSC26204 | 2.79 | – | -1.78 | 1.4 |
| csw | DRSC18756 | 0.97 | – | 1.17 | 0.72 |
| csw | DRSC23326 | 1.21 | – | 1.27 | 0.9 |
| Pi3K59F | DRSC04640 | 1.69 | – | -1.77 | 1.29 |
| Pi3K59F | DRSC28890 | 2.4 | – | -3.15 | 3.58 |
| sax | DRSC07675 | 0.32 | – | -0.22 | 0.32 |
| sax | DRSC26844 | 0.31 | – | -0.9 | 0.17 |
| Adk3 | DRSC05917 | -0.03 | – | 0.55 | -0.75 |
| Adk3 | DRSC28006 | -0.53 | – | 0.82 | -1.11 |
| IKKbeta | DRSC16714 | -0.33 | – | 0.17 | -0.14 |
| Mapmodulin | DRSC06956 | 0.81 | – | -1.57 | 1.83 |
| CG17528 | DRSC07761 | -0.53 | – | -0.37 | 1.11 |
| CaMKI | DRSC17162 | -0.53 | -0.53 | -0.62 | 0.61 |
| CG4839 | DRSC02783 | -0.34 | – | 0.16 | 0.02 |
| CG4839 | DRSC02784 | -0.39 | – | -1.11 | 1.67 |
| wit | DRSC08741 | -0.53 | – | -0.43 | 0.46 |
| wit | DRSC26091 | -0.06 | – | -0.85 | 1.47 |
| Stacl | DRSC23019 | 2.92 | – | -1.57 | 0.82 |
| Stacl | DRSC25838 | -0.53 | – | -0.63 | 1.32 |
| Cdc37 | DRSC08648 | 2.84 | – | -2.68 | 3.04 |
| Cdc37 | DRSC27723 | 2.3 | – | -0.92 | 0.23 |
| Aduk | DRSC16451 | -0.53 | – | 0.76 | -0.71 |
| Aduk | DRSC29838 | 0.46 | – | 0.07 | -0.08 |
| trc | DRSC11406 | 0.48 | – | -3.71 | 3.11 |
| trc | DRSC29426 | 4.78 | – | -2.61 | 0.89 |
| Lk6 | DRSC12867 | -0.31 | – | -0.01 | -0.86 |
| Lk6 | DRSC16728 | -0.29 | – | -1.56 | 1.73 |
| Lk6 | DRSC24029 | -0.28 | – | 0.57 | -0.33 |
| Irbp | DRSC17007 | -0.53 | – | -0.03 | -0.41 |
| Irbp | DRSC23317 | -0.53 | – | -1.14 | 1.18 |
| Irbp | DRSC29386 | 3.19 | – | -1.95 | 0.72 |
| CkIIbeta | DRSC20230 | -0.53 | – | 0.42 | -0.2 |
| sdt | DRSC17556 | 0.14 | – | 0.45 | -1.21 |
| sdt | DRSC17860 | -0.53 | – | 0.73 | -0.46 |
| sdt | DRSC17861 | -0.3 | – | 0.28 | 0.06 |
| sdt | DRSC18108 | -0.53 | – | 0.01 | 0.56 |
| sdt | DRSC26851 | -0.53 | – | -4.69 | 2.56 |
| Cdc7 | DRSC18429 | -0.4 | – | -2.13 | 2.24 |
| Cdc7 | DRSC27819 | 1.18 | – | -1.75 | 1.8 |
| Slik | DRSC04471 | 0.65 (active) | – | -1.4 | 1.4 |
| Slik | DRSC29219 | 3.95 (active) | – | -3.61 | 1.28 |
| Fak | DRSC07426 | -0.19 (active) | – | -1.11 | 1.5 |
| Fak | DRSC26626 | 3.86 (active) | – | -0.86 | -0.66 |
| Sik3 | DRSC06505 | 1.85 | – | -4.61 | 5.02 |
| Sik3 | DRSC29149 | 3.77 | – | -1.95 | 0.41 |
| CG11597 | DRSC09847 | -0.53 | – | 0.24 | 0.08 |
| gish | DRSC16154 | -0.53 | – | 0.56 | -0.79 |
| Lkb1 | DRSC16481 | -0.53 | – | -0.13 | 0.4 |
| awd | DRSC16906 | 2.65 | – | -1.85 | 0.11 |
| Pi4KIIIalpha | DRSC18655 | -0.53 | – | -0.08 | 0.69 |
| Alp9 | DRSC10486 | -0.53 | – | -0.75 | 1.11 |
| Pdp | DRSC17825 | 1.81 | 0.04 | -1.17 | 0.65 |
| Pdp | DRSC26725 | 0.08 | – | -1.61 | 0.05 |
| Pi3K68D | DRSC11253 | -0.53 | – | 0.09 | 0.3 |
| Pi3K68D | DRSC28860 | 0.42 | – | -1.3 | 1.89 |
| Pkg21D | DRSC00772 | 0.55 | – | -1.04 | 1.09 |
| Pkg21D | DRSC29092 | 1.72 | – | -2.47 | 2.55 |
| fwd | DRSC08580 | 0.51 | – | 0.94 | -1.31 |
| fwd | DRSC26680 | -0.53 | – | -0.51 | 0.72 |
| l(2)k01209 | DRSC06889 | 0.14 | – | -0.3 | -0.2 |
| l(2)k01209 | DRSC29673 | 1.11 | – | -0.11 | -0.44 |
| Ilk | DRSC11868 | 1.76 | – | -1.69 | 1.52 |
| Nil | DRSC15953 | 0.76 | – | -0.13 | 0.14 |
| Nil | DRSC23322 | 0.73 | – | -2.75 | 0.72 |
| CG8173 | DRSC20088 | 0.76 | – | -0.79 | 0.94 |
| CG2964 | DRSC00554 | -0.53 | – | -0.24 | 0 |
| CG2964 | DRSC27524 | -0.07 | – | 0.27 | -0.03 |
| Abl | DRSC09661 | 0.43 | – | 0.18 | -0.16 |
| Abl | DRSC23306 | -0.32 | – | 0.68 | -1.24 |
| Gbs-76A | DRSC11081 | 0.06 | – | -1.28 | 2.02 |
| Raf | DRSC18821 | -0.53 | – | 0.38 | 0.03 |
| Raf | DRSC23311 | 0.63 | – | -0.57 | 0.31 |
| Pk34A | DRSC03398 | -0.53 | – | 0.62 | -0.31 |
| Pk34A | DRSC28021 | -0.53 | – | -0.57 | 1.38 |
| Tak1 | DRSC20390 | 0.72 | – | -1.52 | 1.12 |
| Tak1 | DRSC20561 | -0.05 | – | -1.75 | 1.86 |
| Tak1 | DRSC20562 | 0.34 | – | -0.59 | 0.46 |
| Ret | DRSC03409 | 1.11 | – | -0.86 | -0.06 |
| Ret | DRSC03410 | 0.35 | – | -0.85 | 1.43 |
| Nek2 | DRSC18124 | 0.79 | -0.21 | -1.04 | 1.11 |
| Nek2 | DRSC26714 | -0.33 | – | -3.28 | 3.13 |

A few values from the entries so far.
Lk6 [DRSC24029], elongated score, rep 1 = -0.28
For “normal round score, rep 1”, Cdc7 [DRSC27819] reads -1.75
IKKbeta [DRSC16714], elongated score, rep 1: -0.33
Value of Pi4KIIIalpha [DRSC18655] under “teardrop score, rep 1”: 0.69
Entry for CG2964 [DRSC27524] under “elongated score, rep 1”: -0.07
For “teardrop score, rep 1”, sdt [DRSC26851] shows 2.56
